# Source: publication PMC12136000
# Sequences of proteins named here, by UniProt entry; tags and fusion partners are left off. A change or cut given only in a name is not applied to a line headed by its entry.
# UniProt O15371: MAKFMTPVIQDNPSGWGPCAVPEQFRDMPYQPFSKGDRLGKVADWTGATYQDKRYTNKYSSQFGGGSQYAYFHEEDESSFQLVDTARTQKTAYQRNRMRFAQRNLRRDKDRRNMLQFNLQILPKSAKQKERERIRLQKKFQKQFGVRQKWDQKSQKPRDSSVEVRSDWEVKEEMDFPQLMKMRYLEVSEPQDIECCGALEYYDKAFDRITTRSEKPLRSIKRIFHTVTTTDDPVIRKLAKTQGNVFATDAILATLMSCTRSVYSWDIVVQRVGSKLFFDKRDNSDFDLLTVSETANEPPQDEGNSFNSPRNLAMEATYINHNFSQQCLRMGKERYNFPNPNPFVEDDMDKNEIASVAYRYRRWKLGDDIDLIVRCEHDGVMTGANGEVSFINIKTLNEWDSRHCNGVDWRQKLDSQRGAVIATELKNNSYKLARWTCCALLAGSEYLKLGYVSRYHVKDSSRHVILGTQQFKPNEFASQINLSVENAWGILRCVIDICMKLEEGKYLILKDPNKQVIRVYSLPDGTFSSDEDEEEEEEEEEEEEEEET
# UniProt P55884: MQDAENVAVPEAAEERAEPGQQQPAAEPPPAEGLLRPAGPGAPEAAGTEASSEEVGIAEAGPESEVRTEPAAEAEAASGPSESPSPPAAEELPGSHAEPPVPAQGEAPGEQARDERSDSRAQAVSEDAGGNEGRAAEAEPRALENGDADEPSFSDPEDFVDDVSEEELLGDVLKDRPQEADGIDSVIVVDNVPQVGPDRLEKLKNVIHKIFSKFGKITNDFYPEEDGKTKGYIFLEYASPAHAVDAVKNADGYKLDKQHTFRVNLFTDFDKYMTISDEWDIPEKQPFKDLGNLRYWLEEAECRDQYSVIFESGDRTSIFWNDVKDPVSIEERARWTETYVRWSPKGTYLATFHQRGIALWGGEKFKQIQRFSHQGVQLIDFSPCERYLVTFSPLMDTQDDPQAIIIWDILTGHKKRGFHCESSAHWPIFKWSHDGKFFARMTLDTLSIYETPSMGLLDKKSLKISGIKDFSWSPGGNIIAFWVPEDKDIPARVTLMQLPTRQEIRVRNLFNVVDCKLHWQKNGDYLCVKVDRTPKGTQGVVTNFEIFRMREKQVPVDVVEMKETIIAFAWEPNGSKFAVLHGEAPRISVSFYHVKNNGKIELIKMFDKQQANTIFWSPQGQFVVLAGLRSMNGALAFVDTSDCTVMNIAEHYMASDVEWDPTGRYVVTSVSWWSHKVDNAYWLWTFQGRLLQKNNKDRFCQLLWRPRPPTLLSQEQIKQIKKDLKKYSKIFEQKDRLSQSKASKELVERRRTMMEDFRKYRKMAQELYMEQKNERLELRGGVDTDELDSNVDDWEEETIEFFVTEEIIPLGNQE
# UniProt Q9Y262: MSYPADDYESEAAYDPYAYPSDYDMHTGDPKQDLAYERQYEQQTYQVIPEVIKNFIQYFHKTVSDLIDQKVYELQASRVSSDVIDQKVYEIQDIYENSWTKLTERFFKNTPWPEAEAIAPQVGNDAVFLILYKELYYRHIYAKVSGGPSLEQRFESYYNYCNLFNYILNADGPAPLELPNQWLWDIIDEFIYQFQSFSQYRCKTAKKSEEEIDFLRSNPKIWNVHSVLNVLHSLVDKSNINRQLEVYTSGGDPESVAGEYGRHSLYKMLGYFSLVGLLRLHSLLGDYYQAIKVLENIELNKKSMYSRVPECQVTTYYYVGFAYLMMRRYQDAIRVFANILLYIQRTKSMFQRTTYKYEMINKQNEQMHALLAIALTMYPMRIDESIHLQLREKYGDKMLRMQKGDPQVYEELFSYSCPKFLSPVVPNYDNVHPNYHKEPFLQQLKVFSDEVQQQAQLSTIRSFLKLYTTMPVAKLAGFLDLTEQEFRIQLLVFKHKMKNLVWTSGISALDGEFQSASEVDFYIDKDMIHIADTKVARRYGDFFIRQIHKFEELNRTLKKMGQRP
# UniProt Q04637: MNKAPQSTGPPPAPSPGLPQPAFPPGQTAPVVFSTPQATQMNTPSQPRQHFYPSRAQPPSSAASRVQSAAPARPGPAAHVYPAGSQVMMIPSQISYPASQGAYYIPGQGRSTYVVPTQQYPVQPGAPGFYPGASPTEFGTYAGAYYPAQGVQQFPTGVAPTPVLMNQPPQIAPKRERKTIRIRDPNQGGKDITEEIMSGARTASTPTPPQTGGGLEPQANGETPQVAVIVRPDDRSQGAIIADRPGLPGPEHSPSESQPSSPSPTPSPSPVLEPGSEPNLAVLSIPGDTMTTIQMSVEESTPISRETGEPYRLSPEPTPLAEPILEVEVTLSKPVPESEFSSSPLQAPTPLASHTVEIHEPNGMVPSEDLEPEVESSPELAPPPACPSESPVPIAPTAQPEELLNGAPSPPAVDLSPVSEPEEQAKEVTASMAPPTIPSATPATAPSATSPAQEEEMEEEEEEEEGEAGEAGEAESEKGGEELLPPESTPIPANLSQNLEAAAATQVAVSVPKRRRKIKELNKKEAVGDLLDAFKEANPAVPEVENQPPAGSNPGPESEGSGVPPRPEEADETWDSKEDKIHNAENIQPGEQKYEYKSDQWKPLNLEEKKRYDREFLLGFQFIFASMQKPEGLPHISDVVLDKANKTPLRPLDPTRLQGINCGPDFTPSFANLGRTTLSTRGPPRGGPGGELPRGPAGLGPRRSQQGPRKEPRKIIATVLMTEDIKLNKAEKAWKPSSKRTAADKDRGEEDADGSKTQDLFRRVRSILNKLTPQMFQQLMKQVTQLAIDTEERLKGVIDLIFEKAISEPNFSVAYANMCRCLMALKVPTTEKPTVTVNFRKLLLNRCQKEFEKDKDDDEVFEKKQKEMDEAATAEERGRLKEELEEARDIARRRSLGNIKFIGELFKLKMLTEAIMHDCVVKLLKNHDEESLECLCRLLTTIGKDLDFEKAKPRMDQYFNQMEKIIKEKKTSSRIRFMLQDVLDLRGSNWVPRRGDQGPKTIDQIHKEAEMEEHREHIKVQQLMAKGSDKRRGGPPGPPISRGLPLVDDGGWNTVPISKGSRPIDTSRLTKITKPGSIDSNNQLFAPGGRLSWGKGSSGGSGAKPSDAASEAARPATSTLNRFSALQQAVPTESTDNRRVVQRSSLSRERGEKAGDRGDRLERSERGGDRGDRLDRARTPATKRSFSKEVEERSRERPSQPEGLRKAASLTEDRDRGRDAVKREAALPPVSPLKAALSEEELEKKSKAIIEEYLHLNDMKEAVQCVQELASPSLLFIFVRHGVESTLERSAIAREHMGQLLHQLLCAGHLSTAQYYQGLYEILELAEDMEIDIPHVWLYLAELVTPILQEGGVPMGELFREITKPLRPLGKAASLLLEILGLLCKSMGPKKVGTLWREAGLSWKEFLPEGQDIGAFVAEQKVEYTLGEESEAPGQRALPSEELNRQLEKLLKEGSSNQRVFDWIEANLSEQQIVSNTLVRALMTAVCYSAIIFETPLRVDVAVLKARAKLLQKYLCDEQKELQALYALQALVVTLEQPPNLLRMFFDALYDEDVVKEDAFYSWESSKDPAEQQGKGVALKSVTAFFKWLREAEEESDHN
# These are yes or no findings as the source states them, for the method shown. Binding seen in cells or lysates may run through a third protein. Binding calls can cover weak binding; strength is not graded here.
# Biological target: phospho-mimetic eIF3D^DD-FLAG (UniProt O15371)
# Experiment: co-IP; HeLa lysate (50 mM Tris pH7.5, 150 mM NaCl, 1% Triton-X, Benzonase) on anti-flag-beads for 2 h at 4 °C, three washes, western blot; cells treated for 2 h with DMSO or with 3 µM of the CK2 inhibitor CX-5011 before lysis
row,binding,Substance
1,binds,eIF3b (from UniProt P55884 1-814)
2,binds,eIF3l (from UniProt Q9Y262 1-564)
3,binds,eIF4G1 (from UniProt Q04637 1-1599)
